From the supplement of paper PMC10849652
The list shows a part of the results.

Sequences of proteins named here, by UniProt entry; tags and fusion partners are left off. A change or cut given only in a name is not applied to a line headed by its entry.
UniProt Q7Z460: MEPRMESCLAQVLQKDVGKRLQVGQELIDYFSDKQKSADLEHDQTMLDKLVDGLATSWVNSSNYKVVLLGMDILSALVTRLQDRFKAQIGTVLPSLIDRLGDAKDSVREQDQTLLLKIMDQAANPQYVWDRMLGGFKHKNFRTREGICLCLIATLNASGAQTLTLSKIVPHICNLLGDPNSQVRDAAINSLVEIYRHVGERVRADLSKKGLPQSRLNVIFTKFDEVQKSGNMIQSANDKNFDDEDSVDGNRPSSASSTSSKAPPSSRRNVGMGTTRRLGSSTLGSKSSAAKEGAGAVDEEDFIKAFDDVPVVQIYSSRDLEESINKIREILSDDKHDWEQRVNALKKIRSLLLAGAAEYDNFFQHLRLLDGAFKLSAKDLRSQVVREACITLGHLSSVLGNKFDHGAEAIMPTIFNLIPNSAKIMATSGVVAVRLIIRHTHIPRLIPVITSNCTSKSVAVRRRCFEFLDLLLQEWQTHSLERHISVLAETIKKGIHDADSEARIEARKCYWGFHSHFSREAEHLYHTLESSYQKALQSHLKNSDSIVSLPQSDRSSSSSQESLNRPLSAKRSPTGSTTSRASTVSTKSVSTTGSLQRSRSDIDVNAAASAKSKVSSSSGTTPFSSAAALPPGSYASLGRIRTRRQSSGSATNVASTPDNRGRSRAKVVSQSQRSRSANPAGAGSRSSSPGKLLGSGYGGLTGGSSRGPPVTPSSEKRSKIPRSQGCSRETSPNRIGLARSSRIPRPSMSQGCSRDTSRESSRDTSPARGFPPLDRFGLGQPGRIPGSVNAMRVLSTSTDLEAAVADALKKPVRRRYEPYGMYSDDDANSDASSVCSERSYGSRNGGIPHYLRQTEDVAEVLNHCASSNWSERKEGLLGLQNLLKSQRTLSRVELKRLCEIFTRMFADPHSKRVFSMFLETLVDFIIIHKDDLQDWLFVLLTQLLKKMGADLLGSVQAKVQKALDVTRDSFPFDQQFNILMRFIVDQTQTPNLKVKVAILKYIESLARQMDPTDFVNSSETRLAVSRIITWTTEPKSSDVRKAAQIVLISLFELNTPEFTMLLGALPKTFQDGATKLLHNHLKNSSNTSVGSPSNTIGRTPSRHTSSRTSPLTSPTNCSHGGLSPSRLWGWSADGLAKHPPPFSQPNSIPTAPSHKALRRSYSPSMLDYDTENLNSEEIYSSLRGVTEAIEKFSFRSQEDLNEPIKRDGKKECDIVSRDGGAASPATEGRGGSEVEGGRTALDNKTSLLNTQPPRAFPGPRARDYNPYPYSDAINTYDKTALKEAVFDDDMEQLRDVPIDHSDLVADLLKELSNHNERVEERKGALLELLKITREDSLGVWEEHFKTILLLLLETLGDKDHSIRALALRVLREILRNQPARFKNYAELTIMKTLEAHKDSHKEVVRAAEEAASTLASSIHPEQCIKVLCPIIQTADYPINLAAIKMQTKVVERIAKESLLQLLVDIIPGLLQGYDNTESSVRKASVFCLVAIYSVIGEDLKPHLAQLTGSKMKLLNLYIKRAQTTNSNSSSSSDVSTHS
UniProt Q5T1J5: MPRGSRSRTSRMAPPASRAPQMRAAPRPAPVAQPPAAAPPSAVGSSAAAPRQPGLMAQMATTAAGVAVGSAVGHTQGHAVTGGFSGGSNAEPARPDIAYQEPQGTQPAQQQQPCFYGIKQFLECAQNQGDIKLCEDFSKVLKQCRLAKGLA
UniProt Q96EP1: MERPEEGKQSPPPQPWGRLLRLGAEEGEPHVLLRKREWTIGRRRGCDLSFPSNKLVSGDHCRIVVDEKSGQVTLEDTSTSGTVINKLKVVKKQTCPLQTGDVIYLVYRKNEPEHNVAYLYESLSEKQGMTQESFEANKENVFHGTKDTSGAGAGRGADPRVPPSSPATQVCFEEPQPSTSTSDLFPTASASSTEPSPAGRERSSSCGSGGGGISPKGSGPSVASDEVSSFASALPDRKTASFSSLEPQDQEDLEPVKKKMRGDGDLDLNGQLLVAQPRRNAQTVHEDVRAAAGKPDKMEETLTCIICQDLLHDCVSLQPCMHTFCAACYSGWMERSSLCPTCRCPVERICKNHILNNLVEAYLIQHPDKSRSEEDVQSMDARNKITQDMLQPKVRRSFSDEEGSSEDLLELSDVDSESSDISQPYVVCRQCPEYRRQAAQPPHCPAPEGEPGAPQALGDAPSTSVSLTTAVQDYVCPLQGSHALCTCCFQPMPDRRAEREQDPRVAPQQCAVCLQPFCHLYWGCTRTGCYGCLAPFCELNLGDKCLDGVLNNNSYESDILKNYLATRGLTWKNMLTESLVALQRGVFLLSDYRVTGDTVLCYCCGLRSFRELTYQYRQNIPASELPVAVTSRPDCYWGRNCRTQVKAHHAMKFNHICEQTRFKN
UniProt O14967: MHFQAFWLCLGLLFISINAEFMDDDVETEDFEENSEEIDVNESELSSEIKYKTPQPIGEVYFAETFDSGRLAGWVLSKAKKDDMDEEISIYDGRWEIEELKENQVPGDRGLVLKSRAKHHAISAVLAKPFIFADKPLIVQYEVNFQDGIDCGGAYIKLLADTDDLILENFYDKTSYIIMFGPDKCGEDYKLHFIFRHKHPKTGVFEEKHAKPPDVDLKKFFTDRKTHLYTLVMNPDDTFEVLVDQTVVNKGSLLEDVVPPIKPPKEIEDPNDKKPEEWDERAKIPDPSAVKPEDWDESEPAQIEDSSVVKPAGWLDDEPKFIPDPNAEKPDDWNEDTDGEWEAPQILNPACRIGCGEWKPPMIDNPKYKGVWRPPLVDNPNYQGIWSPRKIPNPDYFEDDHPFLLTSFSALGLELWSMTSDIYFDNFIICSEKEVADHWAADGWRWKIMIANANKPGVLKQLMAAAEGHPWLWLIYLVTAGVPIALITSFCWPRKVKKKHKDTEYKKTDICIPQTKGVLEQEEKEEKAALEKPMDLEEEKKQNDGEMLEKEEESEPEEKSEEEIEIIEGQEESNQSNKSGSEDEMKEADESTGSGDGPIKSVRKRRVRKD
UniProt Q9HD42: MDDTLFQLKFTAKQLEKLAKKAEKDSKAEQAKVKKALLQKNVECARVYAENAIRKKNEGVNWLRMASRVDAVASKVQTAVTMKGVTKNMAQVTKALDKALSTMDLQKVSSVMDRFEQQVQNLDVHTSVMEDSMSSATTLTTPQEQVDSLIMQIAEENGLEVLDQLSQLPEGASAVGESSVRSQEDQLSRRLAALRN
UniProt Q9Y6H1: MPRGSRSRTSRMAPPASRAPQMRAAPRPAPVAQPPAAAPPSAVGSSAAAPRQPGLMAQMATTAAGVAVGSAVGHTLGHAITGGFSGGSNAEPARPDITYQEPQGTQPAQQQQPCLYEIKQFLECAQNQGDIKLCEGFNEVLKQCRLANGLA
UniProt Q5EBM0: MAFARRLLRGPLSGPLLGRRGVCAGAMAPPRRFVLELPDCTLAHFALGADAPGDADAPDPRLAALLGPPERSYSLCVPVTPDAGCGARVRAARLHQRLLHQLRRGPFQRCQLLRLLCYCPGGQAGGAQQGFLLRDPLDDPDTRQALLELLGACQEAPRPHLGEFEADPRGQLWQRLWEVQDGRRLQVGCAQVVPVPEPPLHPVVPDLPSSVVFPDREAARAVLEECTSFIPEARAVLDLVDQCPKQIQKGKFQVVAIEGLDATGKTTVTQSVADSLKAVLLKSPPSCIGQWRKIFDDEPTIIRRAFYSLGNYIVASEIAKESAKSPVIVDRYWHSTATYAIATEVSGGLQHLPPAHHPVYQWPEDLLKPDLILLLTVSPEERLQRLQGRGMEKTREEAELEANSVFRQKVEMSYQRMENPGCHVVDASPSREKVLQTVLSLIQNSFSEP
UniProt P35790, whole entry, looked up: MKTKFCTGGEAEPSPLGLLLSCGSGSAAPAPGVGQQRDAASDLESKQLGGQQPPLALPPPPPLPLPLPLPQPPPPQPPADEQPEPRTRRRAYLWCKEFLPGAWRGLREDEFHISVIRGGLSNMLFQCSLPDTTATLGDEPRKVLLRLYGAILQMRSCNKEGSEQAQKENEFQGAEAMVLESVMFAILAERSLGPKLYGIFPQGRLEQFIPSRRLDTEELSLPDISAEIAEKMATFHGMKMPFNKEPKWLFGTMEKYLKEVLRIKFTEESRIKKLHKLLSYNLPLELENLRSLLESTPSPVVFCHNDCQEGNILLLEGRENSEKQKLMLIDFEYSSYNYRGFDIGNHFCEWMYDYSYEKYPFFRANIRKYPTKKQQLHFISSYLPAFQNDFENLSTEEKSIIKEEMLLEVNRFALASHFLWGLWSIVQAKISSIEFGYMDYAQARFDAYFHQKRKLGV
UniProt Q9NRP2: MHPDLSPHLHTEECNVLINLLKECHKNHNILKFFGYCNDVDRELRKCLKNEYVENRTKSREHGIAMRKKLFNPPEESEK
UniProt P49761: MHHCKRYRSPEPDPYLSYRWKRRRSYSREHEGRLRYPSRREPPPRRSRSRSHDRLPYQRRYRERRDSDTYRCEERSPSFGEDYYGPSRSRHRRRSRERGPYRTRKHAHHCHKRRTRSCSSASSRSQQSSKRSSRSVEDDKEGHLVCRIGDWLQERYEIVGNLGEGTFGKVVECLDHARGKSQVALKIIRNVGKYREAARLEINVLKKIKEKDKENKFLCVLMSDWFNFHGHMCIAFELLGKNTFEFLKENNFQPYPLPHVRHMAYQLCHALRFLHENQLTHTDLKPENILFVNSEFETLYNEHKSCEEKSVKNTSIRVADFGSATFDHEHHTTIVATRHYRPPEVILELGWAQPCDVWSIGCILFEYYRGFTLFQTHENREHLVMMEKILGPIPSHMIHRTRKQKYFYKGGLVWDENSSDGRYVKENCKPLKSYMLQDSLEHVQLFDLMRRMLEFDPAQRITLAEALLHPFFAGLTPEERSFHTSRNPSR
UniProt P26374: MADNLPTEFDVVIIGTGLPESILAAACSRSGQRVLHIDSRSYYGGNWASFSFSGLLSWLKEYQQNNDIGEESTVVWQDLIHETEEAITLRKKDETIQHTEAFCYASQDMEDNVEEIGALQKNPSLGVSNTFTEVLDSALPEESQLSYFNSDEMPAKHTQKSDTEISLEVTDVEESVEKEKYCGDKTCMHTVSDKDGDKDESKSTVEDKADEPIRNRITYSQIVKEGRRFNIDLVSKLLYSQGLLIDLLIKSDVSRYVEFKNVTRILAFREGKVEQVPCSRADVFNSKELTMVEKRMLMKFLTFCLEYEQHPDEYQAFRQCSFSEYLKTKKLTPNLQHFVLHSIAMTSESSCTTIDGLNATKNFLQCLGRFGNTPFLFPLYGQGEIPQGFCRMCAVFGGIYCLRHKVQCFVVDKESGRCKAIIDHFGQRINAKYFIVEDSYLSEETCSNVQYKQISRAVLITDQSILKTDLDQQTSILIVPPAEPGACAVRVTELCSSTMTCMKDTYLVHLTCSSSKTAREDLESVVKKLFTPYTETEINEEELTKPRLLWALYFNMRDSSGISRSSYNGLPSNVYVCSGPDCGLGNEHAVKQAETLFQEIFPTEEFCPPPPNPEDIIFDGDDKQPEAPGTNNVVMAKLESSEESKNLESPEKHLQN
UniProt Q9Y3Y2: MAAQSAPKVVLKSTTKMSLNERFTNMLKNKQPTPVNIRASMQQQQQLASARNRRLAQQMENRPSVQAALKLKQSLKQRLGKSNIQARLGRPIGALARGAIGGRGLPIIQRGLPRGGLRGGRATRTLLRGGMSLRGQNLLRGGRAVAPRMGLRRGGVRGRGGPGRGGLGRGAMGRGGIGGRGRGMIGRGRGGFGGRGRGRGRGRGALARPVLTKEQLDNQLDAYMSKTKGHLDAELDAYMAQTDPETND
UniProt Q9NRG0: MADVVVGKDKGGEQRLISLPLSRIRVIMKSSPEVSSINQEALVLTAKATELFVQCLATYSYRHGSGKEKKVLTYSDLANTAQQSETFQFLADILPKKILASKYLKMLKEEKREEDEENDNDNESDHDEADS
UniProt O15111: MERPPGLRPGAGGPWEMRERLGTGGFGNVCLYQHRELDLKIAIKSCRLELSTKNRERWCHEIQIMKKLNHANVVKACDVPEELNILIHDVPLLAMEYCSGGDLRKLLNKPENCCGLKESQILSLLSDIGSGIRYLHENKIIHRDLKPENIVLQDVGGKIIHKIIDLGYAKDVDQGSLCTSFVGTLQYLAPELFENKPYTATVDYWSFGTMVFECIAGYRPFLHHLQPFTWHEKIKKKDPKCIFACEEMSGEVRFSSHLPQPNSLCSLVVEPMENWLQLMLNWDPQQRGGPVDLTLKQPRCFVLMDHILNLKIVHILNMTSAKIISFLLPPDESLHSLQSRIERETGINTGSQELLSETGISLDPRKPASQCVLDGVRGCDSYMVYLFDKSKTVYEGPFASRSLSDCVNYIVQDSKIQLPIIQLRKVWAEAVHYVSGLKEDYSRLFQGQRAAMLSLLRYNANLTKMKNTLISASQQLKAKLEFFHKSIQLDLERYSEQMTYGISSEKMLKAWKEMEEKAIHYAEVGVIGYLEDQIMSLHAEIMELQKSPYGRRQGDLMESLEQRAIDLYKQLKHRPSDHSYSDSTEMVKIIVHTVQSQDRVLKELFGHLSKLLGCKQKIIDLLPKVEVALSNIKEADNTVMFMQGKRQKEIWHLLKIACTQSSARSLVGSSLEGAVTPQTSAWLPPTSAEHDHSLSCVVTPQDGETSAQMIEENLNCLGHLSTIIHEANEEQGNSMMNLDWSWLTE

Legend:
Experiment in all cases: log2 fold change, soluble protein after heating vs DMSO (PISA); higher = thermal stabilisation; K562 lysate, 10 uM; active = over 0.2 and 3.5 SD of the protein, either way, in both replicates (recomputed)
[1] = compound: NCC(=O)Nc1ccc(-n2nc(C(F)(F)F)cc2-c2ccc3c(ccc4ccccc43)c2)cc1
How it was run: (§1)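 To prepare the extract, K562 pellets were dounce-homogenised in PBS pH 7.4 with 1 mM MgCl2, giving crude material at 1 mg/mL protein. This was treated with 10 μM compound for 30 min, then heated in aliquots for 3 min over 48°C-58°C before pooling and addition of NP-40 to 0.5% at 4°C. Centrifugation at 21,000xg for 90 min left soluble protein in the supernatant, which TMTpro 16plex LC-MS/MS quantified with equalised channel sums. Results are log-two fold changes in thermal stability compared with solvent controls, from duplicates.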

[2] = compound: O=C(CCCCCCC(=O)Nc1ccccc1)NO [vorinostat]
How it was run: as §1

[3] = compound: O=C(O)c1ccc2c(c1)nc(Nc1cccc(Cl)c1)c1ccncc12 [silmitasertib]
How it was run: as §1

[4] = compound: O=C1NC(=O)C(c2cnc3ccccn23)=C1c1cn2c3c(cc(F)cc13)CN(C(=O)N1CCCCC1)CC2
How it was run: as §1

[5] = compound: c1cn2cc(-c3ccc4cn[nH]c4c3)nc(Nc3ccc(N4CCOCC4)cc3)c2n1 [entospletinib]
How it was run: as §1

Target | log2 fold change [1] | log2 fold change [2] | log2 fold change [3] | log2 fold change [4] | log2 fold change [5]
CHMP3 (UniProt Q9Y3E7) | inactive: 0.016 | inactive: 0.109 | inactive: -0.037 | inactive: 0.02 | inactive: 0.019
CLASP1 isoform 4 (UniProt Q7Z460) | inactive: -0.214 | inactive: 0.167 | inactive: 0.06 | – | –
CLTA isoform 2 (UniProt P09496) | inactive: 0.061 | inactive: 0.196 | inactive: 0.131 | inactive: 0.004 | inactive: 0.083
CLCC1 (UniProt Q96S66) | inactive: 0.033 | inactive: 0.08 | inactive: 0 | inactive: 0.014 | inactive: 0.003
CHST10 (UniProt O43529) | inactive: -0.041 | inactive: 0.103 | inactive: -0.052 | – | –
CLCN3 isoform 2 (UniProt P51790) | inactive: -0.059 | active: -0.286 | inactive: 0.033 | inactive: -0.024 | inactive: 0.046
CLUH (UniProt O75153) | inactive: -0.011 | active: 0.404 | inactive: 0.071 | inactive: 0.033 | inactive: 0.01
CLUH, A0A494C0R8 | inactive: -0.115 | inactive: 0.028 | inactive: 0.069 | inactive: 0.033 | inactive: 0.033
CLASP2 isoform 3 (UniProt O75122) | inactive: 0.035 | active: -0.329 | inactive: -0.033 | inactive: -0.02 | inactive: 0.005
CHMP6 (UniProt Q96FZ7) | inactive: -0.066 | inactive: 0.105 | inactive: -0.001 | inactive: 0.061 | inactive: -0.018
CHCHD6 (UniProt Q9BRQ6) | inactive: 0.022 | inactive: 0.321 | inactive: -0.019 | inactive: -0.022 | inactive: 0.038
CLTA (UniProt P09496) | inactive: -0.047 | inactive: 0.005 | inactive: 0.073 | inactive: -0.003 | inactive: -0.022
CHCHD2P9 (UniProt Q5T1J5) | inactive: -0.028 | inactive: -0.013 | inactive: -0.096 | inactive: 0.002 | inactive: -0.074
CHFR (UniProt Q96EP1) | inactive: -0.219 | inactive: -0.143 | inactive: 0.057 | inactive: 0.004 | inactive: -0.083
CLGN (UniProt O14967) | inactive: 0.131 | inactive: 0.124 | inactive: -0.047 | inactive: -0.003 | inactive: -0.005
CLIC6 (UniProt Q96NY7) | inactive: 0.051 | inactive: -0.15 | inactive: -0.004 | inactive: -0.014 | inactive: 0.002
CLIP4 (UniProt Q8N3C7) | inactive: 0.014 | inactive: 0.046 | inactive: 0.034 | inactive: 0.031 | inactive: -0.094
CHMP1A (UniProt Q9HD42) | inactive: -0.013 | inactive: 0.116 | inactive: -0.02 | inactive: -0.052 | inactive: 0.005
CLASRP (UniProt Q8N2M8) | inactive: 0.017 | inactive: 0.082 | inactive: -0.015 | inactive: -0.052 | inactive: 0.015
CHMP4A isoform 2 (UniProt Q9BY43) | inactive: 0.011 | inactive: 0.1 | inactive: -0.027 | inactive: -0.051 | inactive: 0.019
CISD3 (UniProt P0C7P0) | inactive: 0.055 | inactive: 0.094 | inactive: -0.017 | inactive: -0.057 | inactive: -0.029
CLASP1 (UniProt Q7Z460) | inactive: 0.018 | active: -0.317 | inactive: -0.015 | inactive: -0.022 | inactive: 0.029
CHCHD1 (UniProt Q96BP2) | inactive: 0.131 | inactive: 0.055 | inactive: -0.039 | inactive: -0.014 | inactive: -0.081
CHCHD2 (UniProt Q9Y6H1) | inactive: -0.022 | active: -0.301 | inactive: 0.044 | inactive: -0.017 | inactive: -0.06
CHEK2 (UniProt O96017) | inactive: -0.021 | inactive: -0.128 | inactive: 0.04 | inactive: -0.006 | inactive: -0.033
CMPK2 (UniProt Q5EBM0) | inactive: -0.002 | active: -0.323 | inactive: 0.005 | inactive: 0.064 | inactive: 0
CHURC1 isoform 2 (UniProt Q8WUH1) | inactive: -0.048 | active: 0.285 | inactive: -0.039 | inactive: -0.043 | inactive: -0.128

Some values from the list:
log2 fold change [5] with CHCHD2 (UniProt Q9Y6H1) reads inactive: -0.06
log2 fold change [5] with CLASP1 (UniProt Q7Z460) reads inactive: 0.029

Carrying on:

Target | log2 fold change [1] | log2 fold change [2] | log2 fold change [3] | log2 fold change [4] | log2 fold change [5]
CHKA (UniProt P35790) | inactive: 0.021 | inactive: 0.025 | inactive: -0.009 | inactive: -0.04 | inactive: -0.004
CIAO2B (UniProt Q9Y3D0) | inactive: 0.008 | inactive: -0.161 | inactive: -0.007 | inactive: 0.018 | inactive: 0
CHMP4C (UniProt Q96CF2) | inactive: -0.007 | inactive: 0.126 | inactive: -0.065 | inactive: 0.018 | inactive: 0.003
CHAF1A (UniProt Q13111) | inactive: 0.004 | active: -0.402 | inactive: -0.004 | inactive: 0.004 | inactive: -0.082
CHM (UniProt P24386) | inactive: 0.127 | inactive: -0.007 | inactive: 0.059 | inactive: 0 | inactive: -0.003
CMC2 (UniProt Q9NRP2) | inactive: -0.051 | inactive: -0.013 | inactive: -0.048 | inactive: -0.068 | inactive: -0.045
CLK3 (UniProt P49761) | inactive: 0.055 | inactive: -0.221 | inactive: 0.163 | inactive: -0.19 | inactive: -0.002
CIRBP (UniProt Q14011) | inactive: 0 | inactive: 0.2 | inactive: -0.05 | inactive: -0.009 | inactive: 0.002
CHML (UniProt P26374) | inactive: 0.029 | active: -0.286 | inactive: 0.003 | inactive: -0.022 | inactive: 0.006
CLTB isoform 2 (UniProt P09497) | inactive: -0.014 | inactive: 0.128 | inactive: -0.017 | inactive: -0.006 | inactive: 0.011
CHMP2B (UniProt Q9UQN3) | inactive: -0.045 | inactive: 0.073 | inactive: 0.038 | inactive: -0.03 | inactive: 0.008
CKM (UniProt P06732) | inactive: 0.003 | inactive: -0.053 | inactive: -0.025 | inactive: -0.014 | inactive: -0.026
CHMP7 (UniProt Q8WUX9) | inactive: -0.013 | inactive: -0.063 | inactive: 0.022 | inactive: -0.003 | inactive: 0.007
CIAO1 (UniProt O76071) | inactive: 0.024 | inactive: 0.014 | inactive: -0.019 | inactive: 0.058 | inactive: -0.035
CHD1L (UniProt Q86WJ1) | inactive: 0.01 | active: -0.277 | inactive: 0.015 | inactive: 0.164 | inactive: 0.046
CKB (UniProt P12277) | inactive: 0 | inactive: -0.091 | inactive: 0.017 | inactive: -0.015 | inactive: -0.005
CLP1 (UniProt Q92989) | inactive: 0.011 | active: -0.307 | inactive: 0.029 | inactive: -0.027 | inactive: 0.008
CHTOP isoform 3 (UniProt Q9Y3Y2) | inactive: 0.022 | inactive: -0.211 | inactive: -0.049 | inactive: 0.056 | inactive: 0.019
CHMP4B (UniProt Q9H444) | inactive: 0.036 | inactive: 0.058 | inactive: -0.014 | inactive: -0.043 | inactive: -0.027
CIP2A (UniProt Q8TCG1) | inactive: 0.043 | active: -0.608 | inactive: 0.055 | inactive: 0.011 | inactive: 0.008
CHRAC1 (UniProt Q9NRG0) | inactive: 0.017 | inactive: -0.06 | inactive: -0.144 | inactive: -0.014 | inactive: 0.012
CLUAP1 (UniProt I3L2E1) | inactive: 0.141 | inactive: -0.13 | inactive: -0.049 | inactive: 0.303 | inactive: 0.011
CLCN3 (UniProt P51790) | inactive: -0.165 | inactive: -0.171 | inactive: 0.118 | inactive: -0.245 | inactive: 0.025
CLN6 (UniProt Q9NWW5) | inactive: -0.088 | inactive: 0.05 | inactive: 0.077 | inactive: 0.145 | inactive: -0.054
CHMP2A (UniProt O43633) | inactive: 0.004 | inactive: 0.116 | inactive: 0.016 | inactive: 0.013 | inactive: 0.025
CMSS1 (UniProt Q9BQ75) | inactive: 0.025 | active: -0.272 | inactive: 0.038 | inactive: -0.024 | inactive: -0.013
CHUK (UniProt O15111) | inactive: -0.016 | active: -0.492 | inactive: 0.103 | inactive: 0.054 | inactive: 0.012
